In US6617427 one finds binding data, which are given here for one molecule.

Protein sequences, listed by entry. Tags and fused reporters are not part of them. Lines headed by an entry give the natural chain unless they say otherwise; changes in a name come on top.
UniProt P0A7C2: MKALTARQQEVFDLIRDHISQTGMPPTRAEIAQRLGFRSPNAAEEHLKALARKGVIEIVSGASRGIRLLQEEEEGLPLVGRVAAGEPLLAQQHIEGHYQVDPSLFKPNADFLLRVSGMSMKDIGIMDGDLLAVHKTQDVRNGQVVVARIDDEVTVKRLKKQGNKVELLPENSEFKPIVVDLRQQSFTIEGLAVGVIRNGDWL

No constants are given. Whether binding was seen depends on the method and setting. Some entries that bind do so weakly or less than the wild type. Sequences can lack the tags named with a protein.

For this experiment, the target named is LexA-Raf-1 (human) (UniProt P0A7C2+P04049). The experiment in a line: yeast two-hybrid.

B1: B42-Tvl-1 fusion (Tvl-1 a.a. 81-269 fused to the activation domain B42) (protein, not shown: large carriers)
chain: VSALPATLDSLSIHQLAAQGELSQLKDHLRKGACPACTCLSGNNLINKPDERGFTPLIWASAFGEIETVRFLLDWGADPHILAKERESALSLASMGGYTDIVRLLLDRDVDINIYDWNGGTPLLYAVRGNHVKCVEALLARGADLTTEADSGYTPMDLAVALGYRKVQQVMESHILRLFQSTLGPVDPE
For B1, the binding entry was “binds”.
